Where a name gives a salt, the structure may show the parent alone. Some of the results follow. Baselines shift from plate to plate; read single values as rough.

One assay has as its system E18 rat cortical neuron-glia co-culture. Nature of the assay: total nuclei (DAPI) / Olig2+ nuclei (ratio); higher = more depletion of OPC/OL lineage cells. The following applies: 1 µM; treatment time: 8 days (DIV5-DIV13). As to the method:
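Primary E18 rat cortical co-cultures (neurons, astrocytes, OPC/OLs) in 96-well plates. NIH Clinical Collection compounds were added on DIV5 in myelination medium at 5 and 1 µM for 8 days, then cells were fixed on DIV13 and stained for MBP, Olig2 and DAPI. Myelination (contiguous aligned MBP fiber length per Olig2+ nucleus) was normalised to plate controls (0.1% DMSO = 0, 1 µM DAPT = 100) as % of DAPT. Each value is from duplicate wells with 4 image fields each. Fiber length/MBP is the fiber score divided by the MBP differentiation score; DAPI/Olig2 is the ratio of total to Olig2+ nuclei.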
For the molecule `O=C1CC[C@@]2(O)[C@H]3Cc4ccc(O)c5c4[C@@]2(CCN3CC2CC2)[C@H]1O5` [Naltrexone], the total nuclei worked out at 4.45.

As to `C[C@]12C/C(=C/O)C(=O)C[C@@H]1CC[C@@H]1[C@@H]2CC[C@@]2(C)[C@H]1CC[C@]2(C)O` [Oxymetholone], the total nuclei was 3.18.

For the molecule `CCC1(c2ccc(N)cc2)CCC(=O)NC1=O` (centres undefined) [Aminoglutethimide], the total nuclei was 3.92.

As for `CN1[C@@H]2C[C@@H](OC(=O)[C@H](CO)c3ccccc3)C[C@H]1[C@@H]1O[C@@H]12` [Scopolamine hydrobromide], the total nuclei is 5.3.

For the molecule `CCOC(=O)C1(c2ccccc2)CCN(CCC(C#N)(c2ccccc2)c2ccccc2)CC1` [Diphenoxylate], the total nuclei was found to be 3.17.

As to `C[C@]12CC[C@H]3[C@@H](CCC4=CC(=O)CC[C@@H]43)[C@@H]1CC[C@@H]2O` [Nandrolone], the total nuclei was determined as 5.1.

In the case of `Oc1cc2c(cc1O)[C@H]1c3ccccc3CN[C@@H]1CC2` (racemic) [Dihydrexidine], the total nuclei is 2.72.

For the molecule `C[C@]12CCC(=O)C[C@@H]1CC[C@@H]1[C@@H]2CC[C@@]2(C)[C@H]1CC[C@]2(C)O` [Mestanolone], the total nuclei is 3.47.

Regarding `CC(C)N(CCC(C(N)=O)(c1ccccc1)c1ccccn1)C(C)C` (centres undefined) [Disopyramide], the total nuclei turned out to be 3.93.

With `CC(O)(CS(=O)(=O)c1ccc(F)cc1)C(=O)Nc1ccc(C#N)c(C(F)(F)F)c1` (centres undefined) [Bicalutamide], the total nuclei came to 5.25.

As to `C[C@]12CC[C@H](O)CC1=CC[C@@H]1[C@@H]2CC[C@]2(C)C(=O)CC[C@@H]12` [Dehydroepiandrosterone], the total nuclei came to 3.87.

Consider `Oc1ccc2c3c1O[C@H]1c4[nH]c5ccccc5c4C[C@@]4(O)[C@@H](C2)N(CC2CC2)CC[C@]314` [Naltrindole], for which the total nuclei stood at 4.

As for `c1ccc(Cn2ccnc2)cc1` [1-Benzylimidazole], the total nuclei came to 2.88.

For `CCC(COC(=O)c1cc(OC)c(OC)c(OC)c1)(c1ccccc1)N(C)C` (centres undefined) [Trimebutine], the total nuclei came to 4.11.

For `CN1C(=O)COc2c(C(=O)NC3CN4CCC3CC4)cc(Cl)cc21` (centres undefined) [Azasetron], the total nuclei came out at 2.56.

Consider `CCCC(C)(COC(N)=O)COC(=O)NC(C)C` (centres undefined) [Carisoprodol], for which the total nuclei was found to be 3.52.

With `CNC1=Nc2ccc(Cl)cc2C(c2ccccc2)=[N+]([O-])C1` [Chlordiazepoxide], the total nuclei was 2.65.

In the case of `CC(C)[C@]12O[C@H]1[C@@H]1O[C@]13[C@]1(O[C@H]1C[C@H]1C4=C(CC[C@@]13C)C(=O)OC4)[C@@H]2O` [Triptolide], the total nuclei is more than 40.

As for `COc1cccc(C2(O)CCCCC2CN(C)C)c1` (centres undefined) [Tramadol], the total nuclei amounted to 2.76.

Staying with this assay, now noted: 5 µM; treatment time: 8 days (DIV5-DIV13).
Take `O=C1CC[C@@]2(O)[C@H]3Cc4ccc(O)c5c4[C@@]2(CCN3CC2CC2)[C@H]1O5` [Naltrexone]: the total nuclei is 4.2.

For `C[C@]12C/C(=C/O)C(=O)C[C@@H]1CC[C@@H]1[C@@H]2CC[C@@]2(C)[C@H]1CC[C@]2(C)O` [Oxymetholone], the total nuclei was 3.3.

Regarding `CCC1(c2ccc(N)cc2)CCC(=O)NC1=O` (centres undefined) [Aminoglutethimide], the total nuclei was determined as 4.

Take `CN1[C@@H]2C[C@@H](OC(=O)[C@H](CO)c3ccccc3)C[C@H]1[C@@H]1O[C@@H]12` [Scopolamine hydrobromide]: the total nuclei stood at 5.

As to `CCOC(=O)C1(c2ccccc2)CCN(CCC(C#N)(c2ccccc2)c2ccccc2)CC1` [Diphenoxylate], the total nuclei was determined as 3.1.

`CN(C)C(=O)Oc1ccc[n+](C)c1` [Pyridostigmine Bromide]: the total nuclei came out at 2.9.

For the molecule `C[C@]12CC[C@H]3[C@@H](CCC4=CC(=O)CC[C@@H]43)[C@@H]1CC[C@@H]2O` [Nandrolone], the total nuclei was found to be 4.9.

As to `Oc1cc2c(cc1O)[C@H]1c3ccccc3CN[C@@H]1CC2` (racemic) [Dihydrexidine], the total nuclei turned out to be 6.5.

For the molecule `C[C@]12CCC(=O)C[C@@H]1CC[C@@H]1[C@@H]2CC[C@@]2(C)[C@H]1CC[C@]2(C)O` [Mestanolone], the total nuclei was 3.9.

For `CC(C)N(CCC(C(N)=O)(c1ccccc1)c1ccccn1)C(C)C` (centres undefined) [Disopyramide], the total nuclei came to 4.8.

Regarding `CC(O)(CS(=O)(=O)c1ccc(F)cc1)C(=O)Nc1ccc(C#N)c(C(F)(F)F)c1` (centres undefined) [Bicalutamide], the total nuclei came out at 7.1.

Consider `C[C@]12CC[C@H](O)CC1=CC[C@@H]1[C@@H]2CC[C@]2(C)C(=O)CC[C@@H]12` [Dehydroepiandrosterone], for which the total nuclei came out at 3.9.

For `Oc1ccc2c3c1O[C@H]1c4[nH]c5ccccc5c4C[C@@]4(O)[C@@H](C2)N(CC2CC2)CC[C@]314` [Naltrindole], the total nuclei was 4.2.

Consider `c1ccc(Cn2ccnc2)cc1` [1-Benzylimidazole], for which the total nuclei was determined as 2.9.

Consider `CCC(COC(=O)c1cc(OC)c(OC)c(OC)c1)(c1ccccc1)N(C)C` (centres undefined) [Trimebutine], for which the total nuclei was determined as 4.7.

Turning to `CN1C(=O)COc2c(C(=O)NC3CN4CCC3CC4)cc(Cl)cc21` (centres undefined) [Azasetron], the total nuclei was 2.6.

With `CCCC(C)(COC(N)=O)COC(=O)NC(C)C` (centres undefined) [Carisoprodol], the total nuclei turned out to be 3.7.

In the case of `CNC1=Nc2ccc(Cl)cc2C(c2ccccc2)=[N+]([O-])C1` [Chlordiazepoxide], the total nuclei is 2.8.

For `CC(C)[C@]12O[C@H]1[C@@H]1O[C@]13[C@]1(O[C@H]1C[C@H]1C4=C(CC[C@@]13C)C(=O)OC4)[C@@H]2O` [Triptolide], the total nuclei was more than 40.

`COc1cccc(C2(O)CCCCC2CN(C)C)c1` (centres undefined) [Tramadol]: the total nuclei came to 2.7.

These data come from the supplement of paper PMC4840960.
